Assay results from the supplement of paper PMC6078165.
The reference is the same well before dosing, and untreated signal decays as well.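 Fibroblast labels name human fibroblasts: mostly primary ones from tissues such as uterus (C12385, HUF), lung (H6013), bone (Hs27A), adrenal (HADF) and skin (WS1), plus mammary HMF and breast cancer-associated Hs343T. The cancer cells are basal-like or mesenchymal-like triple-negative breast cancer lines. The paper calls a changed response a hit when it shifts by more than 3x the replicate standard deviation. The tissue of the other fibroblasts is not given here.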

System: HCC1143
Test: relative JC-1 red fluorescence (viability) vs pre-drug, coculture with fibroblast (fraction); higher = more viable cancer cells
Protocol: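 JC-1 labelled TNBC cells cocultured 1:1 (1,500 cells each) with CellTrace Violet stained primary or stromal fibroblasts in 384-well plates in FluoroBrite medium, treated with one of 42 anticancer drugs at 0.1, 1, 10 or 100 uM. JC-1 red fluorescence (mitochondrial integrity in cancer cells only) was read by plate reader every 8 h for 72 h. Values are normalised to each well's pre-drug value. The stock of one drug was tenfold lower, so its dose labels may be too high.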

O=C1c2c(O)ccc(O)c2C(=O)c2c(NCCNCCO)ccc(NCCNCCO)c21 [Mitoxantrone]
relative JC-1 red fluorescence
Conditions	8 h	16 h	24 h	32 h	40 h	48 h	56 h	64 h	72 h
0.1 µM, coculture fibroblast: C12385	0.80938	0.743	0.668	0.622	0.563	0.517	0.485	0.435	0.406
0.1 µM, coculture fibroblast: H6013	0.712	0.6329	0.615	0.622	0.564	0.556	0.532	0.516	0.505
0.1 µM, coculture fibroblast: H6019	0.817	0.738	0.694	0.637	0.6	0.563	0.518	0.471	0.432
0.1 µM, coculture fibroblast: H6076	0.772	0.739	0.729	0.741	0.7094	0.737	0.726	0.718	0.742
0.1 µM, coculture fibroblast: H6231	0.7059	0.745	0.659	0.504	0.5648	0.5229	0.492	0.458	0.436
0.1 µM, coculture fibroblast: HADF	0.656	0.5761	0.5469	0.57234	0.495	0.4718	0.455	0.439	0.442
0.1 µM, coculture fibroblast: HCFa	0.699	0.613	0.578	0.577	0.502	0.48	0.448	0.424	0.414
0.1 µM, coculture fibroblast: HCPF	0.74	0.7711	0.718	0.6088	0.6609	0.6333	0.6072	0.584	0.56
0.1 µM, coculture fibroblast: HHSteC	0.689	0.6013	0.57	0.557	0.485	0.451	0.429	0.408	0.382
0.1 µM, coculture fibroblast: HMF	0.741	0.762	0.7085	0.647	0.657	0.643	0.62	0.601	0.586
0.1 µM, coculture fibroblast: HPFa	0.889	0.819	0.807	0.744	0.708	0.675	0.633	0.586	0.549
0.1 µM, coculture fibroblast: HUF	0.8304	0.7474	0.709	0.65	0.618	0.589	0.551	0.527	0.4977
0.1 µM, coculture fibroblast: Hs5	0.7885	0.7694	0.7422	0.753	0.701	0.684	0.676	0.652	0.665
0.1 µM, coculture fibroblast: Hs27A	0.6167	0.553	0.526	0.5655	0.461	0.445	0.4238	0.4102	0.4346
0.1 µM, coculture fibroblast: Hs343T	0.7656	0.748	0.711	0.683	0.677	0.669	0.654	0.646	0.639
0.1 µM, coculture fibroblast: WS1	0.787	0.726	0.68	0.629	0.592	0.553	0.522	0.494	0.474
1 µM, coculture fibroblast: C12385	0.603	0.547	0.532	0.495	0.462	0.454	0.446	0.437	0.434
1 µM, coculture fibroblast: H6013	0.284	0.274	0.274	0.277	0.269	0.277	0.253	0.235	0.159
1 µM, coculture fibroblast: H6019	0.636	0.5781	0.54	0.484	0.443	0.428	0.399	0.372	0.357
1 µM, coculture fibroblast: H6076	0.48699	0.458	0.451	0.458	0.388	0.38	0.356	0.342	0.348
1 µM, coculture fibroblast: H6231	0.423	0.392	0.386	0.42	0.355	0.348	0.332	0.318	0.328
1 µM, coculture fibroblast: HADF	0.257	0.246	0.254	0.252	0.232	0.239	0.234	0.229	0.155
1 µM, coculture fibroblast: HCFa	0.346	0.34	0.338	0.333	0.322	0.325	0.316	0.295	0.228
1 µM, coculture fibroblast: HCPF	0.434	0.39	0.393	0.424	0.363	0.361	0.345	0.336	0.353
1 µM, coculture fibroblast: HHSteC	0.304	0.284	0.28	0.267	0.249	0.244	0.2269	0.215	0.1541
1 µM, coculture fibroblast: HMF	0.415	0.4276	0.405	0.396	0.351	0.333	0.306	0.283	0.287
1 µM, coculture fibroblast: HPFa	0.662	0.617	0.602	0.527	0.481	0.4675	0.427	0.4207	0.403
1 µM, coculture fibroblast: HUF	0.614	0.576	0.55	0.509	0.482	0.486	0.449	0.442	0.427
1 µM, coculture fibroblast: Hs5	0.4929	0.476	0.475	0.5	0.425	0.422	0.407	0.391	0.396
1 µM, coculture fibroblast: Hs27A	0.284	0.291	0.306	0.336	0.315	0.35	0.338	0.335	0.249
1 µM, coculture fibroblast: Hs343T	0.439	0.416	0.393	0.398	0.32	0.3	0.275	0.265	0.264
1 µM, coculture fibroblast: WS1	0.553	0.532	0.502	0.44	0.413	0.404	0.39	0.377	0.366
10 µM, coculture fibroblast: C12385	0.388	0.261	0.269	0.35	0.445	0.48	0.467	0.419	0.373
10 µM, coculture fibroblast: H6013	0.097	0.0382	0.0886	0.155	0.183	0.187	0.149	0.115	0.0206
10 µM, coculture fibroblast: H6019	0.473	0.391	0.352	0.379	0.394	0.414	0.38	0.347	0.303
10 µM, coculture fibroblast: H6076	0.35	0.261	0.206	0.281	0.242	0.256	0.233	0.188	0.195
10 µM, coculture fibroblast: H6231	0.236	0.126	0.15	0.2376	0.26	0.273	0.217	0.159	0.112
10 µM, coculture fibroblast: HADF	0.0389	0.0101	0.00358	0.0927	0.142	0.167	0.155	0.132	0.0448
10 µM, coculture fibroblast: HCFa	0.0609	0.0151	0.0349	0.122	0.168	0.182	0.153	0.115	0.0297
10 µM, coculture fibroblast: HCPF	0.288	0.174	0.145	0.252	0.243	0.28	0.283	0.249	0.226
10 µM, coculture fibroblast: HHSteC	0.06863	0.0543	0.136	0.216	0.248	0.228	0.186	0.14	0.0474
10 µM, coculture fibroblast: HMF	0.252	0.173	0.106	0.192	0.154	0.188	0.175	0.15	0.118
10 µM, coculture fibroblast: HPFa	0.368	0.336	0.3952	0.418	0.384	0.3987	0.347	0.312	0.251
10 µM, coculture fibroblast: HUF	0.325	0.237	0.303	0.296	0.282	0.292	0.277	0.238	0.235
10 µM, coculture fibroblast: Hs5	0.331	0.226	0.236	0.357	0.357	0.382	0.365	0.305	0.293
10 µM, coculture fibroblast: Hs27A	0.00964	0.0156	0.0295	0.0952	0.117	0.157	0.134	0.119	0.0379
10 µM, coculture fibroblast: Hs343T	0.299	0.162	0.134	0.266	0.243	0.302	0.279	0.244	0.221
10 µM, coculture fibroblast: WS1	0.342	0.219	0.26	0.349	0.436	0.464	0.41	0.353	0.291
